Library screen at single concentrations

Chains of the proteins cited; added tags and fusions are not shown. Residues count along the entry.
UniProt A4I591, 1-473: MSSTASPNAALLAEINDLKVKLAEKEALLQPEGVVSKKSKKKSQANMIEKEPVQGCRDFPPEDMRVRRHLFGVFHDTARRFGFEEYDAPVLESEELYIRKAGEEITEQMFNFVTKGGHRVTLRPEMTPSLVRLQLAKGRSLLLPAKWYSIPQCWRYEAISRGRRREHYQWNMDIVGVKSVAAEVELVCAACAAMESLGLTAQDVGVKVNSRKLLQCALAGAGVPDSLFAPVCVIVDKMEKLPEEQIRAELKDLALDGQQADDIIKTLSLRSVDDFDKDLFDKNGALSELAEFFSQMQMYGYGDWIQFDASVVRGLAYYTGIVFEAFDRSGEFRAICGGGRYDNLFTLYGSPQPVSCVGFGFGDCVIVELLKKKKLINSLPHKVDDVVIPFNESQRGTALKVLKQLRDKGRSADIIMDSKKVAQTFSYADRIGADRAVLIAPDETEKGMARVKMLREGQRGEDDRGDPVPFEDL

Measurements from “University of Dundee, Small-Polar-MMV Screening Library” (2021), ChEMBL document CHEMBL3988442.

Each number is a percent effect as filed.
The controls that fix the scale are not given in the record; negative values are as filed.
This is an unselected part of the compounds tested.
A dash means the value is not listed here; it may have been measured.

LiHisRS: 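Histidine-tRNA ligase, Leishmania infantum (UniProt A4I591). Enzyme assay of histidyl-tRNA synthetase; the read-out is not stated. Concentration: 30 µM. The record gives no direction; compounds that gave an IC50 in retests scored well above the rest, so higher reads as stronger inhibition. The assay is labelled LdHisRS but filed under L. infantum. About 69,000 compounds were tested under these conditions; 0.6% (about 410) showed 50% or more at least once.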
Toxoplasma: 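Assay of Toxoplasma gondii numbers, read through their beta-galactosidase reporter with a colour substrate. Tested at 10 µM. Higher reads as fewer parasites (inferred from which compounds were picked for retests). About 67,000 compounds were tested under these conditions; 0.38% (about 260) showed 50% or more at least once.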

{"structure": "O=C(NCCCN1CCCCCC1=O)c1n[nH]c(=O)c2ccccc12", "LiHisRS": 10.71, "Toxoplasma": -22.36}
{"structure": "CN(C)C(=O)C1CN(Cc2c[nH]cn2)CCN(C2CCOCC2)C1", "stereo": "stereo not shown", "LiHisRS": 16.67, "Toxoplasma": -0.8328}
{"structure": "[H][C@]12CC[C@]([H])(CN(Cc3cn(C)nc3C)C1)N(Cc1c(C)noc1C)C2=O", "Toxoplasma": 14.76}
{"structure": "CS(=O)(=O)N1CCCC(C(=O)N2CCOc3ccccc32)C1", "stereo": "stereo not shown", "LiHisRS": 16, "Toxoplasma": -11.19}
{"structure": "CCc1nnc2n1CCN(C(=O)c1ccc3[nH]nnc3c1)C2", "LiHisRS": 18.52, "Toxoplasma": 11.72}
{"structure": "CC(C)c1nc2n(n1)CC(NCC(=O)N(C)Cc1cccs1)CC2", "stereo": "stereo not shown", "LiHisRS": 3.419, "Toxoplasma": 7.027}
{"structure": "CCC(NCc1ccccn1)c1ccccc1OCC(=O)NC", "stereo": "stereo not shown", "LiHisRS": 13.7, "Toxoplasma": -1.741}
{"structure": "O=C(c1cn(-c2cc(N3CCSCC3)ncn2)cn1)N1CCSCC1", "LiHisRS": 26.92, "Toxoplasma": 8.101}
{"structure": "O=c1c(-c2ccnc(NC3CCOCC3)n2)cnc2sc(Cl)cn12", "LiHisRS": 12.16, "Toxoplasma": 5.532}
{"structure": "O=C(CO[C@@H]1CC[C@H]2[C@H]1OCCN2CC1CCOCC1)N1CCCC1", "LiHisRS": 11.54}
{"structure": "CN1CCOCC2(CCCN(C(=O)Cc3ccncc3)C2)C1.O=C(O)C(F)(F)F", "stereo": "stereo not shown", "Toxoplasma": -13.94}
{"structure": "O=C(O)C(F)(F)F.O=C(c1ccncc1F)N1CC2CC1(C(=O)N1CCCC1)C2", "Toxoplasma": 3.661}
{"structure": "CCn1ccnc1C1CCN(C(=O)C(O)c2ccc(Cl)cc2)CC1", "stereo": "stereo not shown", "LiHisRS": 14.75, "Toxoplasma": 15.42}
{"structure": "CN(C)c1ncccc1NC(=O)COC1CCCC1", "LiHisRS": -2.222, "Toxoplasma": -12.02}
{"structure": "Cc1cnccc1CN1Cc2ccccc2O[C@]2(CC[C@H](CO)CC2)C1", "LiHisRS": 10.31, "Toxoplasma": 3.236}
{"structure": "COC1COC2(CCN(CC3CC3)CC2)C1", "stereo": "stereo not shown", "LiHisRS": -1.98}
{"structure": "CN(Cc1cccnc1)C1CC2(CCN(Cc3cccnc3)CC2)C1", "LiHisRS": 18}
{"structure": "Cc1c(C(=O)N2CC(=O)N(C)C2)nnn1-c1cccc2cccnc12", "LiHisRS": 9.821, "Toxoplasma": -0.4823}
{"structure": "COCC1COCCC12CCN(C(=O)Cc1ccc(F)cc1)CC2", "stereo": "stereo not shown", "LiHisRS": 5.128, "Toxoplasma": 10.26}
{"structure": "CCOc1cc(C)nc(N2CCN(C(=O)c3cn[nH]c3CC)CC2)n1", "LiHisRS": 11.86, "Toxoplasma": 8.595}
{"structure": "COc1ccc(NC(=O)C2OC(c3cccs3)=NN2C(C)=O)cc1OC", "stereo": "stereo not shown", "LiHisRS": 17.82, "Toxoplasma": -0.02689}
{"structure": "CCOC(=O)N1CCN(C(=O)C(C)n2ccnc2C(C)C)CC1", "stereo": "stereo not shown", "LiHisRS": 19.78, "Toxoplasma": -1.805}
{"structure": "Cc1n[nH]c(C)c1CN1CC[C@@H]2[C@@H](CCC(=O)N2CCc2c[nH]cn2)C1", "LiHisRS": 19.35}
{"structure": "CC(=O)N1CCCN(C(=O)NCC2(c3cccs3)CCCC2)CC1", "LiHisRS": 4.167, "Toxoplasma": -1.775}
{"structure": "O=C(Cc1c[nH]c2ncccc12)NCC(O)c1ccccc1F", "stereo": "stereo not shown", "LiHisRS": -1.149, "Toxoplasma": 7.346}
{"structure": "[H][C@@]12CCN(Cc3ccco3)C[C@@]1([H])O[C@@H](c1ccnc(C)n1)C2", "Toxoplasma": 7.907}
{"structure": "Cc1cnn(CCNCC(O)c2ccc(S(C)(=O)=O)cc2)c1", "stereo": "stereo not shown", "LiHisRS": 6.25, "Toxoplasma": -2.876}
{"structure": "COC(=O)Nc1nc2c(s1)CN(C(=O)NCc1cccs1)CC2", "LiHisRS": 19.35, "Toxoplasma": 1.645}
{"structure": "CC(=O)N(Cc1noc(C)n1)C1CCN(CC(=O)N(C)C2CC2)C1", "stereo": "stereo not shown", "LiHisRS": 20.48, "Toxoplasma": -9.723}
{"structure": "c1cnc(-c2nn3c(CN4CCCCC4)nnc3s2)cn1", "LiHisRS": 12.07, "Toxoplasma": 70.51}
{"structure": "CN1C(Cn2cccn2)C[C@@H]2CN(Cc3nccs3)CC[C@@H]21", "stereo": "stereo partly shown", "LiHisRS": 2.74}
{"structure": "CN(Cc1ccccc1)CC1(O)CCCN(Cc2ccc(F)cc2)C1=O", "stereo": "stereo not shown", "LiHisRS": 8.642, "Toxoplasma": -2.288}
{"structure": "Cc1nc(NC(=O)N2CCCC(C(C)(C)O)C2)nn1C", "stereo": "stereo not shown", "LiHisRS": 17.74}
{"structure": "O=C(C1=CCCC1)N1C[C@H](OCc2cccnc2)[C@H]2OCCC[C@H]21", "LiHisRS": 25.71}
{"structure": "O=C(O)C(F)(F)F.[H][C@]12CCC[C@@]1(COCc1cccnc1)CN(C(=O)c1ccn(C)n1)C2", "Toxoplasma": -0.4025}
{"structure": "[H][C@@]12NC(=O)N[C@@H](c3ccc(OC)cc3)[C@]1([H])CCCO2", "Toxoplasma": -6.5}
{"structure": "Cc1noc(C(C)C)c1C(=O)NS(=O)(=O)c1cccnc1", "LiHisRS": 15.09, "Toxoplasma": 1.459}

The first 5 entries again:

structure	LiHisRS	Toxoplasma
O=C(NCCCN1CCCCCC1=O)c1n[nH]c(=O)c2ccccc12	10.71	-22.36
CN(C)C(=O)C1CN(Cc2c[nH]cn2)CCN(C2CCOCC2)C1 (stereo not shown)	16.67	-0.8328
[H][C@]12CC[C@]([H])(CN(Cc3cn(C)nc3C)C1)N(Cc1c(C)noc1C)C2=O	-	14.76
CS(=O)(=O)N1CCCC(C(=O)N2CCOc3ccccc32)C1 (stereo not shown)	16	-11.19
CCc1nnc2n1CCN(C(=O)c1ccc3[nH]nnc3c1)C2	18.52	11.72